Consider one molecule from patent publication US20220276244A1.

Results are given in words; binding and its absence hold for the method and conditions named. Some binding calls cover weakened binding; strength is not graded here. Where a sequence is shown, tags or fusion partners need not be part of it.

The target in the test is recombinant human OX2R receptor (SEQ ID NO:18) having the ECLs from OX2R and the ICLs from the mu-opioid receptor, fused to LgBiT (human). Briefly: NanoBiT (LgBiT/SmBiT) complementation in HEK 293T cells, Example 5 (assay of Example 3).

B1: XA8633 fusion (XA8633 fused via a flexible linker to SmBiT) (VHH)
VHH: QVQLQESGGGLVRPGGSRRLSCVDSERTSYPMGWFRRAPGKEREFVASITWSGIDPTYADSVADRFTISRDVANNTLYLQMNSLKHEDTAVYYCAARAPVGQSSSPYDYDYWGQGTQVTVSS
Consider B1, for which the binding result is reported as “binds”.
